Literature values as cited in patent US8367716B2 (priority 2003, dated 2013).
At least one structure is not confirmed: it was looked up by name or label, or the drawing left a doubt.

System: S. aureus strain 15981
Settings: S. aureus 15981, hyperbiofilm human clinical strain; cited from earlier work

**Q.** For `CCC[C@@H]1C[C@@H](C(=O)N[C@@H]([C@H]2O[C@H](SC)[C@H](O)[C@@H](O)[C@H]2O)[C@H](C)Cl)N(C)C1` [Clindamycin], which antibiotic susceptibility is on record?
**A.** susceptible
